{"source": "PubChem BioAssay AID1259314 (Drosophila RNAi Screening Center, 2017)", "screen": "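Genes whose knock-down alters cell survival under toxic manganese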 (primary screen)", "cells": "Drosophila S2R+ cells", "knock-down reagent": "long dsRNA against Drosophila genes", "timing": "5 days (4 days knock-down, then 1 day metal exposure)", "treatment": "manganese chloride added to 15 mM for 24 hours", "read-out": "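Luciferase ATP signal used as a proxy for viable cell number, reported as one averaged z-score per dsRNA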", "scale": "mean ATP z-score: higher = more ATP than the plate average, more viable cells under manganese", "call rule": "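Called active when the mean ATP z-score is above 1.5 or below -1.5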", "meaning of the calls": "active = strong ATP change, up or down; inactive = no strong ATP change", "note": "In all, the deposit lists about 3,100 reagents; this is an unselected part. 289 of them (9.3%) were called active. 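Active includes both higher and lower ATP than plate average; check the z-score sign for direction.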 A number with no mark means an inactive call. Reagent sequences are not shown. The record does not give: the amount of reagent."}
{"gene knocked down":"GluRIID","dsRNA":"DRSC16723","mean ATP z-score":"1.87 (active)"}
{"gene knocked down":"GluRIID","dsRNA":"DRSC24866","mean ATP z-score":0.903}
{"gene knocked down":"Fad2","dsRNA":"DRSC11165","mean ATP z-score":"-2.78 (active)"}
{"gene knocked down":"Fad2","dsRNA":"DRSC23579","mean ATP z-score":-0.568}
{"gene knocked down":"Nach","dsRNA":"DRSC07478","mean ATP z-score":1.23}
{"gene knocked down":"Nach","dsRNA":"DRSC39863","mean ATP z-score":0.719}
{"gene knocked down":"CG5348","dsRNA":"DRSC06933","mean ATP z-score":-0.599}
{"gene knocked down":"CG5348","dsRNA":"DRSC39672","mean ATP z-score":1.06}
{"gene knocked down":"CG13229","dsRNA":"DRSC06349","mean ATP z-score":1.39}
{"gene knocked down":"Or65b","dsRNA":"DRSC08809","mean ATP z-score":0.0886}
{"gene knocked down":"Or65b","dsRNA":"DRSC39719","mean ATP z-score":0.689}
{"gene knocked down":"CG17841","dsRNA":"DRSC17737","mean ATP z-score":"1.56 (active)"}
{"gene knocked down":"CG17841","dsRNA":"DRSC28821","mean ATP z-score":1.1}
{"gene knocked down":"Gat","dsRNA":"DRSC17144","mean ATP z-score":0.609}
{"gene knocked down":"Gat","dsRNA":"DRSC39474","mean ATP z-score":0.241}
{"gene knocked down":"CG2991","dsRNA":"DRSC00559","mean ATP z-score":0.359}
{"gene knocked down":"CG2991","dsRNA":"DRSC26300","mean ATP z-score":-0.816}
{"gene knocked down":"5-HT1B","dsRNA":"DRSC05031","mean ATP z-score":-0.204}
{"gene knocked down":"5-HT1B","dsRNA":"DRSC25996","mean ATP z-score":1.21}
{"gene knocked down":"GC1","dsRNA":"DRSC15322","mean ATP z-score":-0.175}
{"gene knocked down":"GC1","dsRNA":"DRSC25627","mean ATP z-score":0.503}
{"gene knocked down":"shakB","dsRNA":"DRSC20585","mean ATP z-score":-0.166}
{"gene knocked down":"shakB","dsRNA":"DRSC22817","mean ATP z-score":-0.153}
{"gene knocked down":"shakB","dsRNA":"DRSC26262","mean ATP z-score":0.285}
{"gene knocked down":"Or19a","dsRNA":"DRSC20684","mean ATP z-score":-0.144}
{"gene knocked down":"tor","dsRNA":"DRSC07707","mean ATP z-score":-0.3}
{"gene knocked down":"tor","dsRNA":"DRSC36623","mean ATP z-score":0.181}
{"gene knocked down":"tor","dsRNA":"DRSC36624","mean ATP z-score":0.308}
{"gene knocked down":"Trc8","dsRNA":"DRSC15437","mean ATP z-score":0.222}
{"gene knocked down":"Trc8","dsRNA":"DRSC28575","mean ATP z-score":0.644}
{"gene knocked down":"IA-2","dsRNA":"DRSC00652","mean ATP z-score":0.33}
{"gene knocked down":"IA-2","dsRNA":"DRSC24588","mean ATP z-score":-1.5}
{"gene knocked down":"IA-2","dsRNA":"DRSC36830","mean ATP z-score":-0.125}
{"gene knocked down":"IA-2","dsRNA":"DRSC36831","mean ATP z-score":-0.807}
{"gene knocked down":"Octbeta2R","dsRNA":"DRSC15350","mean ATP z-score":-0.562}
{"gene knocked down":"Octbeta2R","dsRNA":"DRSC16165","mean ATP z-score":-0.718}
{"gene knocked down":"Octbeta2R","dsRNA":"DRSC25380","mean ATP z-score":0.488}
{"gene knocked down":"CG16700","dsRNA":"DRSC19755","mean ATP z-score":-0.115}
{"gene knocked down":"CG16700","dsRNA":"DRSC39560","mean ATP z-score":-0.436}
{"gene knocked down":"Dop2R","dsRNA":"DRSC20683","mean ATP z-score":"-1.6 (active)"}
{"gene knocked down":"Dop2R","dsRNA":"DRSC29286","mean ATP z-score":-0.5}
{"gene knocked down":"Remo","dsRNA":"DRSC19710","mean ATP z-score":-0.284}
{"gene knocked down":"Ent2","dsRNA":"DRSC28879","mean ATP z-score":-1.48}
{"gene knocked down":"Ent2","dsRNA":"DRSC39799","mean ATP z-score":1.18}
{"gene knocked down":"CG34435","dsRNA":"DRSC18086","mean ATP z-score":0.0941}
{"gene knocked down":"CG34435","dsRNA":"DRSC39470","mean ATP z-score":0.161}
{"gene knocked down":"CG31663","dsRNA":"DRSC00078","mean ATP z-score":-0.792}
{"gene knocked down":"CG31663","dsRNA":"DRSC00389","mean ATP z-score":-0.535}
{"gene knocked down":"CG31663","dsRNA":"DRSC00390","mean ATP z-score":0.448}
{"gene knocked down":"CG31663","dsRNA":"DRSC00393","mean ATP z-score":-0.996}
